Assay results: PMC9033807
These are yes or no findings as the source states them, for the method shown. Some results given as binding are weak or reduced against the parent protein; the word gives no strength. Where a sequence is shown, tags or fusion partners need not be part of it.

By UniProt entry, the sequences of proteins in these tests, tags left out.
UniProt Q9UKV8: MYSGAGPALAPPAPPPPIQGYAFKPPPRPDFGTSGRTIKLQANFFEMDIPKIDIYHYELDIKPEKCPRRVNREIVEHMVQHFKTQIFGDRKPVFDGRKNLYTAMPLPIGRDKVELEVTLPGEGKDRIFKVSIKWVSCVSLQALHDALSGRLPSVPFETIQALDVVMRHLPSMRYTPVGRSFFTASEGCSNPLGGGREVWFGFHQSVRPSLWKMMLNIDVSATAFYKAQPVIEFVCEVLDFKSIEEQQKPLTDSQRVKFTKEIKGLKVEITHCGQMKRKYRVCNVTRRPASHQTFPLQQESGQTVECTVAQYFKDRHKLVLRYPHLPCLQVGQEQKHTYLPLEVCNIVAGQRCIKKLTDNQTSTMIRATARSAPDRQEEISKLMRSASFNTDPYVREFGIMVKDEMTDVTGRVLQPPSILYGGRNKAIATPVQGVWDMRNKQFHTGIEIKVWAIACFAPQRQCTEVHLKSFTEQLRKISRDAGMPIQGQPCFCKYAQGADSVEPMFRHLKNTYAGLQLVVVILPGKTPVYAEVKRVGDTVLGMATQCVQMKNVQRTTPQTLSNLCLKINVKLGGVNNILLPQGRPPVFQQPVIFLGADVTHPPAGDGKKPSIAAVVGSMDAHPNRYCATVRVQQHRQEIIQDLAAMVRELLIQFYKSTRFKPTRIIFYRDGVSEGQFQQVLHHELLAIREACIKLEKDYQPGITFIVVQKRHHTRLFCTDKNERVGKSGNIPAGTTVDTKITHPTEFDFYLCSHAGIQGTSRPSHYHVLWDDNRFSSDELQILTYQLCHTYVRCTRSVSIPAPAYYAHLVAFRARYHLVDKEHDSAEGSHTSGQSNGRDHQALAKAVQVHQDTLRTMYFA

Target: T1, His-TAp63 (UniProt Q9H3D4)
T1 sequence: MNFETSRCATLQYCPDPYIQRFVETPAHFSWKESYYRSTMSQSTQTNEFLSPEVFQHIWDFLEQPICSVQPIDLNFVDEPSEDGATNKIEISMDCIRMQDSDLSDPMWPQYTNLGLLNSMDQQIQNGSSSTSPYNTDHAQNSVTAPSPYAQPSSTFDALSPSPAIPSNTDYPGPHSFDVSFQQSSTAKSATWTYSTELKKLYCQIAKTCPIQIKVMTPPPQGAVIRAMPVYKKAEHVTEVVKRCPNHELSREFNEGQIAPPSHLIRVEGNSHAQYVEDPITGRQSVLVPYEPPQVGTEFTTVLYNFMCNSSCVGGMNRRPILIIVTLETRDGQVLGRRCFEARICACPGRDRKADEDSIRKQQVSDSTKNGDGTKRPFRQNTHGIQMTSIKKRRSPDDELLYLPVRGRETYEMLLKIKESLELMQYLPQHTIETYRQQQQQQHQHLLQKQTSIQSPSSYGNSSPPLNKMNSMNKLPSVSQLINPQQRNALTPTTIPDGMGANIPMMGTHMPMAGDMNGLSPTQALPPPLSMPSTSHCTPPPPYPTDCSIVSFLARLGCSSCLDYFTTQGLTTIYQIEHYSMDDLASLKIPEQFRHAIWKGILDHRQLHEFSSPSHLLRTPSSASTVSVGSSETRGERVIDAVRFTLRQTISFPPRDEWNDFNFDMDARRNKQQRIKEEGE
Assay: pull-down; in vitro Ni2+ pull-down; His-TAp63 held, GST-Ago2 detected by immunoblotting with an antibody against GST; proteins purified from E. coli; both purified

binding: binds
Substance: GST-Ago2 (from UniProt Q9UKV8 1-859)
